# Laboratory results: PubChem BioAssay AID493014 (National Center for Advancing Translational Sciences (NCATS), 2011)
# The other results are listed elsewhere or left out. The main result of the screen is listed elsewhere. These columns were measured beside it and carry no call. Most of these compounds were active or inconclusive in the main read-out, so they are no random draw. Potencies come from curve fits of mixed quality, noted in brackets.
# Experiment: qHTS Assay to Find Inhibitors of Chronic Active B-Cell Receptor Signaling
# Conditions: ABC-DLBCL IkBa-CBG/CBR reporter, luminescence ratio (green luciferase fused to IkBa over red control in TMD8 lymphoma cells), 4 h
# Excerpt: NIH Molecular Libraries Probe Production Network [MLPCN] NIH Chemical Genomics Center [NCGC] MLPCN Grant: 1 R03 DA031086-01A1 PI Name: Dr. R. Eric Davis NCGC Assay Overview: Diffuse large B-cell lymphoma (DLBCL) is the most common category of non-Hodgkin lymphoma, with ~20,000 new cases per year in the United States. DLBCL should be regarded as a collection of different neoplasms. Microarray gene expression analysis has defined two principal types of DLBCL, named for their similarity to normal B cell stages or activation states: a germinal center B-cell (GCB) type, and an activated B-cell (ABC) type. In ABC-DLBCL, a constitutive high-level activity of the NF-kappaB family of transcription factors has been observed (1) and NF-kappaB target genes are more highly expressed in ABC primary tumors than in GCB tumors. Functional studies have shown a constitutive high-level activity of the IkappaB (inhibitor of kappa-B) kinase (IKK) complex. […] Further analysis of DLBCL primary tumors for NF-kappaB target gene expression imply that although CARD11 is required for constitutive IKK activity in all ABC-DLBCL lines, mutations in CARD11 may be the root cause of IKK activation only in lines or tumors with such mutations. In other words, CARD11 mutations may explain NF-kappaB activation in only 10% of ABC-DLBCL cases. […] This process has been termed 'chronic active BCR signaling' (CABS). The goal of this screen is to find small-molecule inhibitors of the CABS pathway found in ABC-DLBCL lines using a cell-based assay that measures IkappaBalpa stability, which has already been extensively validated in the OCI-Ly3 line (PubChem AID:445; REF: 4). […] The assay uses green (CBG68) and red (CBR) emitting beetle luciferases [Chroma-GloTM developed by Promega Corp.] where the green luciferase is fused to IkappaBalpha and the red luciferase is present in its native state. Both luciferase genes are stably present in the TMD8 human ABC DLBCL cell line, but their expression is under the control of tetracycline-inducible promoters. Following the addition of doxycycline to induce expression of the luciferases, the green luminescence in control cultures rises only slowly because the CBG fusion partner IkappaBalpha is targeted by IKK activity for rapid degradation. In contrast, green luminescence rises rapidly in the presence of proteasome inhibitors or IKK inhibitors. The rise in red luminescence of CBR is not affected by proteasome or IKK inhibitors, and serves as normalization for cell number and nonspecific effects. Compounds were screened as a concentration-titration series that ranged from 46 uM to 3 nM.
# NCGC Assay Protocol Summary: Cells were seeded in 1536-well plates at 5000 cells/4uL in IMDM medium containing 0.5% FBS, w/o phenol red, 1% penicillin/streptomycin. Then, 23 nL of compounds or DMSO were delivered to each well using a pin tool. One uL 20ng/ml doxycycline was then dispensed into white solid 1536-well plates and the plates were incubated at 37C/5% C02 in a cell incubator for 4 hrs. Then 4 uL luminescent substrate mix (in-house prepared: 150 mM Tris-Cl, pH 7.6, 3 mM MgCl2, 1% Triton X-100, 5 mM DTT, 0.2 mM CoA, 0.15 mM ATP, 5 mM D-luciferin, final concentrations) was added to each well. The plate was incubated at r.t. for 10-15 min. The plates were measured on a ViewLux plate reader for green luminescence (540/20 nm filter) and red luminescence (618/8 nm filter). The green and red luminescent signals were corrected for red and green luminescence filter overlap using previously determined filter calibration constants (determined using the procedure outlined in the Promega Technical Manual; REF 4). The %Activity was determined from the ratio of corrected green/red luminescent values. MG132 were used as control. […] Red luminescent %Activity was normalized to the difference between red luminesence in basal cells (0%Activity) and zero luminescence (-100% Activity). […]
# [1] = measured here: CBR red luminescence, cell number
# [2] = measured here: IkBa-CBG green luminescence
SMILES,AC50 [1],AC50 [2]
Cc1csc(NC(=O)/C=C/c2ccc(C)o2)n1,"18.4 µM [falling, single point]",–
CCN(CC)C(=O)CSc1nnc(-c2ccccc2)n1N,"22.4 µM [rising, single point]",–
CC(=O)c1ccc(N(C(=O)Cn2nnc(-c3ccccc3)n2)C(C(=O)NC2CCCCC2)c2ccccn2)cc1 (stereo not drawn),"13 µM [rising, partial curve, poor fit]",–
CCCc1cc(C(=O)Cc2nc3ccccc3s2)c(O)cc1O,"14.1 µM [falling, single point]",–
CCCC(=O)c1cc(F)c(N2CCN(S(=O)(=O)c3ccccc3)CC2)cc1C,"20.6 µM [rising, partial curve, poor fit]",–
CCOC(=O)c1sc(NC(=O)c2c(OC)cccc2OC)nc1C,"4.11 µM [falling, full curve, poor fit]","4.61 µM [rising, full curve, poor fit]"
O=C(Nc1nccs1)C1CCN(S(=O)(=O)c2ccccc2)CC1,"25.1 µM [falling, single point]",–
COc1ccc(C(C)NC(=O)Cc2cccs2)cc1OC (stereo not drawn),"35.5 µM [rising, partial curve, poor fit]",–
COc1cc(OC)c(N2CC(C(=O)Nc3cc(Cl)ccc3N3CCOCC3)CC2=O)cc1Cl (stereo not drawn),"23.1 µM [rising, partial curve]","20.6 µM [falling, single point]"
CC1=C(n2nnc([N+](=O)[O-])n2)C(c2cccnc2)C(C#N)=C(N)O1 (stereo not drawn),"16.4 µM [falling, single point]",–
Cc1cc(N=Cc2c(O)n(-c3cccc(Cl)c3)c(=O)c3ccccc23)no1,"0.461 µM [rising, full curve, poor fit]",–
COC(=O)c1sc(=S)n(-c2ccc(Cl)cc2)c1C,"23.1 µM [rising, partial curve, poor fit]",–
CC1CCN(Cc2ccc(NC(=O)CC3Oc4ccccc4NC3=O)cc2)CC1 (stereo not drawn),"29.1 µM [falling, single point]",–
COc1ccc2oc(-c3ccccc3[N+](=O)[O-])cc(=O)c2c1,–,"35.5 µM [falling, partial curve, poor fit]"
CN(C)S(=O)(=O)c1cccc(NC(=S)N/N=C/c2ccc(O)c(O)c2O)c1,"35.5 µM [falling, single point]",–
O=C(NCc1ccccc1C(F)(F)F)c1cccc2c1C(=O)c1ccc(N3CCOCC3)cc1S2(=O)=O,"14.6 µM [rising, single point]",–
COc1ccccc1NC(=S)NCc1cccs1,"0.58 µM [rising, full curve, poor fit]",–
O=C(CCc1ccccc1)NCCc1ccc(F)cc1,"35.5 µM [falling, single point]",–
COc1ccccc1C(=O)Nc1ccc2nc(SCC(=O)N(C)C)sc2c1,"9.2 µM [rising, partial curve, poor fit]",–
O=C(Nc1ccc(Cl)cc1)N1CCSc2ccccc21,"4.47 µM [rising, partial curve]",–

# Entries of single compounds, quoted from the list:
# O=C(NCc1ccccc1C(F)(F)F)c1cccc2c1C(=O)c1ccc(N3CCOCC3)cc1S2(=O)=O as listed: AC50 [1]: 14.6 µM [rising, single point]
# CCCc1cc(C(=O)Cc2nc3ccccc3s2)c(O)cc1O as listed: AC50 [1]: 14.1 µM [falling, single point]

# Next part.

SMILES,AC50 [1],AC50 [2]
COc1ccc(-n2nnnc2SCC(=O)Nc2ccc3c(c2)OCCO3)cc1OC,"25.9 µM [rising, single point]",–
O=C(N/N=C/c1cc(Br)c(O)c(Br)c1)c1cccnc1,"3.55 µM [falling, single point]",–
COC(=O)c1cc(C#N)c(NCc2ccccc2)nc1C,"29.1 µM [rising, single point]",–
COc1ccc(C(=O)OCC(=O)Nc2ccc(N3CCOCC3)cc2)cc1OC,"29.1 µM [rising, single point]",–
O=C(CSc1nnc(-c2ccc(O)cc2)o1)Nc1ccccc1Br,"14.1 µM [falling, partial curve, poor fit]",–
O=C(NCc1ccc(F)cc1)C(c1ccc(Cl)cc1)N(C(=O)c1csnn1)C1CC1 (stereo not drawn),"20 µM [falling, partial curve, poor fit]",–
CCCCn1c(N)c(N(C(=O)CSc2nnc(C)n2-c2ccccc2)C2CCCC2)c(=O)[nH]c1=O,"2.31 µM [rising, partial curve, poor fit]",–
O=C(NCCc1ccc2c(c1)OCCO2)c1cccc(S(=O)(=O)N2CCCC2)c1,"0.291 µM [rising, full curve, poor fit]",–
Cc1ccnc(NS(=O)(=O)Cc2ccccc2)c1,"31.6 µM [rising, single point]",–
O=C1c2cc3ccccc3c(-c3ccccc3)c2C(=O)N1c1ccccn1,"14.6 µM [rising, partial curve]",–
Cc1c(C(c2ccc(Br)cc2)c2c(C)n(C)n(-c3ccccc3)c2=O)c(=O)n(-c2ccccc2)n1C,"10 µM [rising, partial curve]",–
Cc1cccc2nc(-c3cccnc3)c(Nc3ccccc3)n12,"35.5 µM [falling, single point]",–
Cc1ccccc1N/C=C/C(=C(C#N)C#N)N(C)C,"6.31 µM [rising, single point]",–
O=C(N/N=C/c1cccnc1)c1cc2c(ccc3ccccc32)o1,"14.6 µM [falling, partial curve, poor fit]",–
O=C(COc1ccccc1[N+](=O)[O-])NCCC1=CCCCC1,"0.562 µM [rising, full curve, poor fit]",–
CSc1nnc(Cc2sc(-c3ccccc3)nc2-c2ccccc2)o1,"0.092 µM [rising, full curve, poor fit]",–
CC(C)C1C(=O)NC(=S)N1S(=O)(=O)c1ccc(C(C)(C)C)cc1 (stereo not drawn),"20.6 µM [falling, partial curve, poor fit]","20.6 µM [rising, partial curve, poor fit]"
Cc1ccc(NCc2nnc(SCC(N)=O)n2CCc2ccccc2)cc1,"0.517 µM [falling, full curve, poor fit]",–
Cc1c(C(=O)O)sc2nc(SCC(=O)Nc3ccc(S(=O)(=O)NC(C)(C)C)cc3)[nH]c(=O)c12,"35.5 µM [falling, single point]",–
CCOC(=O)c1cc(-c2ccccc2)n(-c2cccc(C(=O)Nc3cccc(C(C)=O)c3)c2)c1C,"3.98 µM [falling, single point]",–
